# Counter-ions that a name gives are not always drawn. This is one part of the list. Most values lie at the level of the controls, where differences are scatter.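 Melting temperature was read by differential scanning fluorimetry in a single-replicate pilot screen of a library of approved drugs and clinical or known-target compounds. Compounds raising the melting point by at least 2 °C were the top stabilizing hits, and negative shifts mean destabilization.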 Where a SMILES comes first, the peptide text is derived from it. [ ]: non-standard residue; d: D form. The star is where a group is joined. Dolaproine = CO[C@@H]([C@@H]1CCCN1)[C@@H](C)C(=O)O; Dil = CC[C@H](C)[C@H](NC)[C@@H](CC(=O)O)OC; X1 = C[C@@H](N*)[C@@H](O)c1ccccc1; NMeV = CN[C@H](C(=O)O)C(C)C
# Tested on: SARS-CoV-2 main protease (Mpro, nsp5)
# Assay: thermal shift ΔTm of Mpro relative to plate average Tm; higher = stronger thermal stabilization of Mpro (binding)
# Details: 10 µM; protein concentration 1 µM
row,Structure (SMILES),thermal shift ΔTm of Mpro [°C]
1,CN(C)CCN1C(=O)c2cccc3cc(N)cc(c23)C1=O [Amonafide],0.655
2,O=c1cc(CN2CCOCC2)occ1OCCCCCSc1ccnc2cc(C(F)(F)F)ccc12,-0.378
3,NCCCC[C@H](NC(=O)[C@H](Cc1cnc[nH]1)NC(=O)CN)C(=O)O [Glycyl-L-Histidyl-L-Lysine] (H-Gly-His-Lys-OH),0.177
4,O[C@@H]1CO[C@H]2[C@@H]1OC[C@@H]2O [Isosorbide],-0.107
5,NC1(C(=O)O)CCC(C(=O)O)C1 (mixture of isomers) [(±)-trans-ACPD],-0.0839
6,CCn1c(-c2nonc2N)nc2cnc(Oc3cccc(NC(=O)c4ccc(OCCN5CCOCC5)cc4)c3)cc21,-0.215
7,O=C(O)c1ccc(N2C(=O)C(=Cc3ccc(-c4ccc([N+](=O)[O-])cc4)o3)C=C2c2ccccc2)cc1,0.426
8,CC(C)(C)C(O)/C=C/c1ccc2c(c1)OCO2 (configuration not stated) [Stiripentol],0.282
9,Cc1cc(CS(=O)(=O)c2ccccc2)cc(OCc2ccc(CN3CCC[C@@H]3CO)cc2)c1,-0.124
10,CCc1cc(/C(C)=N/OCc2ccc(C3CCCCC3)c(C(F)(F)F)c2)ccc1CN1CC(C(=O)O)C1 [BAF312 (Siponimod)],-1.11
11,CCN(CCCc1ccccc1)CCCc1ccccc1 [Alverine Citrate],-0.00601
12,COc1ccccc1/C=C1\C(=O)Nc2ccccc21,-0.0187
13,COc1cc2c(cc1OC)CN(CCc1ccc(NC(=O)c3cccc4c(=O)c5cccc(OC)c5[nH]c34)cc1)CC2,-0.125
14,O=P(O)(O)C(O)(Cc1cccnc1)P(=O)(O)O [Risedronic Acid],-0.0183
15,O=P(O)(O)C(O)(Cc1cccnc1)P(=O)(O)O [Risedronate Sodium],0.183
16,CC[C@H](C)[C@@H]([C@@H](CC(=O)N1CCC[C@H]1[C@H](OC)[C@@H](C)C(=O)N[C@H](C)[C@@H](O)c1ccccc1)OC)N(C)C(=O)[C@@H](NC(=O)[C@@H](NC)C(C)C)C(C)C [Monomethyl auristatin E (MMAE)] (H-[NMeV]V[Dil][Dolaproine]-X1),-0.31
17,O=C(Nc1ccc2c(O)cc(S(=O)(=O)O)cc2c1)Nc1ccc2c(O)cc(S(=O)(=O)O)cc2c1,0.49
18,CCN(CC)C(=O)N1CCN(C)CC1 [Diethylcarbamazine citrate],-0.194
19,CC(C)(C)c1ccc(S(=O)(=O)NCc2ccc(C(=O)Nc3cccnc3)cc2)cc1,0.18
20,Cc1ccccc1C(=O)N1CCc2cc(-c3nc(NC(=O)Cc4ccc5c(c4)OCO5)sc3C)ccc21,-0.219
21,Cc1c(Br)cc(NCC(=O)N/N=C/c2cc([N+](=O)[O-])ccc2O)cc1Br,0.249
22,Cc1cc(CC(C)CC(C)(C)C)n(O)c(=O)c1 (configuration not stated) [Piroctone olamine],-0.225
23,O=S(=O)(O)CCSSCCS(=O)(=O)O [Dimesna],0.24
24,CO[C@H]1C(=O)[C@]2(C)[C@@H](OC)C[C@H]3OC[C@@]3(OC(C)=O)[C@H]2[C@H](OC(=O)c2ccccc2)[C@]2(O)C[C@H](OC(=O)[C@H](O)[C@@H](NC(=O)OC(C)(C)C)c3ccccc3)C(C)=C1C2(C)C [Cabazitaxel],-0.135

# Random excerpt: 2 entries already listed
row,Structure (SMILES),thermal shift ΔTm of Mpro [°C]
16,CC[C@H](C)[C@@H]([C@@H](CC(=O)N1CCC[C@H]1[C@H](OC)[C@@H](C)C(=O)N[C@H](C)[C@@H](O)c1ccccc1)OC)N(C)C(=O)[C@@H](NC(=O)[C@@H](NC)C(C)C)C(C)C [Monomethyl auristatin E (MMAE)] (H-[NMeV]V[Dil][Dolaproine]-X1),-0.31
22,Cc1cc(CC(C)CC(C)(C)C)n(O)c(=O)c1 (configuration not stated) [Piroctone olamine],-0.225

# The listing continues:

row,Structure (SMILES),thermal shift ΔTm of Mpro [°C]
1,Clc1ccc(COC(Cn2ccnc2)c2ccc(Cl)cc2Cl)cc1 (configuration not stated) [Econazole],-0.245
2,Clc1ccc(COC(Cn2ccnc2)c2ccc(Cl)cc2Cl)cc1 (configuration not stated) [Econazole nitrate],-0.08
3,C[C@H](CCC(=O)NCC(=O)O)[C@H]1CC[C@H]2[C@@H]3[C@H](O)C[C@@H]4C[C@H](O)CC[C@]4(C)[C@H]3C[C@H](O)[C@]12C [Glycocholic Acid Sodium Salt],0.00666
4,CO/N=C1\CN(c2nc3c(cc2F)c(=O)c(C(=O)O)cn3C2CC2)CC1CN (configuration not stated) [Gemifloxacin mesylate],0.044
5,Clc1ccccc1C(c1ccccc1)(c1ccccc1)n1ccnc1 [Clotrimazole],-0.265
6,NC(=O)NO [Hydroxyurea],0.0535
7,COc1cc2ncnc(Nc3ccc(F)c(Cl)c3)c2cc1NC(=O)/C=C/CN1CCCCC1,0.434
8,O=c1c(O[C@@H]2O[C@@H](CO)[C@H](O)[C@H]2O)c(-c2ccc(O)c(O)c2)oc2cc(O)cc(O)c12 [Avicularin],0.0509
9,Nc1ncnc2c1nc(Br)n2[C@@H]1O[C@@H]2COP(=O)(O)O[C@H]2[C@H]1O [8-Bromo-cAMP],0.176
10,CCCCC1C(=O)N(c2ccccc2)N(c2ccccc2)C1=O [Phenylbutazone],1.18
11,O=C(Nc1ccc2[nH]nc(-c3ccncc3)c2c1)[C@@H]1CCN(CC(=O)N2CCN(c3ccc(-c4ncccn4)cc3)CC2)C1,0.0283
12,CCCCOC(=O)c1ccc(O)cc1 [Butylparaben],-0.0509
13,COCCCOc1cc(C[C@@H](C[C@H](N)[C@@H](O)C[C@H](C(=O)NCC(C)(C)C(N)=O)C(C)C)C(C)C)ccc1OC [Aliskiren Hemifumarate],-0.146
14,CCCc1nc2c(C)cc(-c3nc4ccccc4n3C)cc2n1Cc1ccc(-c2ccccc2C(=O)O)cc1 [Telmisartan],-0.18
15,CC(C)(C)C1CCc2c(sc(NC(=O)c3ccco3)c2C(=O)O)C1 (configuration not stated),-0.0432
16,CC(=O)/N=c1/sc(S(N)(=O)=O)nn1C [Methazolamide],0.0848
17,CC1=CC(=O)c2ccccc2C1=O [Menadione],0.169
18,Cc1ccc(C(=O)N(CCCN)[C@@H](c2nc3cc(Cl)ccc3c(=O)n2Cc2ccccc2)C(C)C)cc1,-0.174
19,COC(=O)CN(c1ccc(CN(c2ccc(OCc3ccc(C)cc3)c(C(=O)OC)c2)S(=O)(=O)Cc2ccccc2)cc1)S(C)(=O)=O,-0.0033
20,N[C@@H](CCNCc1ccc(Cl)cc1)C(=O)N1CCCCC1,-0.0599
21,C[C@@H](Oc1cc(-c2cnn(C3CCNCC3)c2)cnc1N)c1c(Cl)ccc(F)c1Cl,-0.189
22,C[C@@H](Oc1cc(-c2cnn(C3CCNCC3)c2)cnc1N)c1c(Cl)ccc(F)c1Cl [Crizotinib],0.379
23,CCC(CC)(NC(=O)C(C)C)C(=O)N[C@@H](CCCN=C(N)N)C(=O)NC1(C(=O)NC(c2ccc(F)cc2)c2ccc(F)cc2)CCCC1,-0.0596

# — the supplement of paper PMC8166895
